# Experimental data as given in the supplement of paper PMC12819154, “High-throughput peptide-centric local stability assay extends protein–ligand identification to membrane proteins, tissues and bacteria” (Nature Structural & Molecular Biology, 2025).
# Chains of the proteins cited; added tags and fusions are not shown. Lines headed by an entry give the natural chain unless they say otherwise; changes in a name come on top.
# UniProt P33316: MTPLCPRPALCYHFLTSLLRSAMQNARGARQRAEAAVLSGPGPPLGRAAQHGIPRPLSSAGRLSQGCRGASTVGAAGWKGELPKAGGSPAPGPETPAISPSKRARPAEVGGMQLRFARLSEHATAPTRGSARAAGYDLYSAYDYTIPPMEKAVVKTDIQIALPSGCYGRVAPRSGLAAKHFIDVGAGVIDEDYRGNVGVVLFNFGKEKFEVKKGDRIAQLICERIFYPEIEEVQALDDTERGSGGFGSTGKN
# UniProt P34913, whole entry: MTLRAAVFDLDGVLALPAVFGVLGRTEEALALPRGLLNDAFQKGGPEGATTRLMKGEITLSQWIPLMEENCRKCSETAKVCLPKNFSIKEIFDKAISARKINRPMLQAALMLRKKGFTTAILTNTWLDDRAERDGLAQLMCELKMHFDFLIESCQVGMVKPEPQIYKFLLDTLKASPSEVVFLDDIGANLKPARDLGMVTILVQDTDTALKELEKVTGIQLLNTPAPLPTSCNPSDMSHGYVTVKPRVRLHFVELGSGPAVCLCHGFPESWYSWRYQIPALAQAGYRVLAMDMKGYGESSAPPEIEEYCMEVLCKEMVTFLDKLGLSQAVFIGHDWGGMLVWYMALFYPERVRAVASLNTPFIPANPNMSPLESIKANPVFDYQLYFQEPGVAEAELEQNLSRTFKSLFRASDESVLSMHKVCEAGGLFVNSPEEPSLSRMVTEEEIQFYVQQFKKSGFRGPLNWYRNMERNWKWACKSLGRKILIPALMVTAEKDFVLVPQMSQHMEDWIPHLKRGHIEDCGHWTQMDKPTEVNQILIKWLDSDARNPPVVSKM
# UniProt P35222, whole entry: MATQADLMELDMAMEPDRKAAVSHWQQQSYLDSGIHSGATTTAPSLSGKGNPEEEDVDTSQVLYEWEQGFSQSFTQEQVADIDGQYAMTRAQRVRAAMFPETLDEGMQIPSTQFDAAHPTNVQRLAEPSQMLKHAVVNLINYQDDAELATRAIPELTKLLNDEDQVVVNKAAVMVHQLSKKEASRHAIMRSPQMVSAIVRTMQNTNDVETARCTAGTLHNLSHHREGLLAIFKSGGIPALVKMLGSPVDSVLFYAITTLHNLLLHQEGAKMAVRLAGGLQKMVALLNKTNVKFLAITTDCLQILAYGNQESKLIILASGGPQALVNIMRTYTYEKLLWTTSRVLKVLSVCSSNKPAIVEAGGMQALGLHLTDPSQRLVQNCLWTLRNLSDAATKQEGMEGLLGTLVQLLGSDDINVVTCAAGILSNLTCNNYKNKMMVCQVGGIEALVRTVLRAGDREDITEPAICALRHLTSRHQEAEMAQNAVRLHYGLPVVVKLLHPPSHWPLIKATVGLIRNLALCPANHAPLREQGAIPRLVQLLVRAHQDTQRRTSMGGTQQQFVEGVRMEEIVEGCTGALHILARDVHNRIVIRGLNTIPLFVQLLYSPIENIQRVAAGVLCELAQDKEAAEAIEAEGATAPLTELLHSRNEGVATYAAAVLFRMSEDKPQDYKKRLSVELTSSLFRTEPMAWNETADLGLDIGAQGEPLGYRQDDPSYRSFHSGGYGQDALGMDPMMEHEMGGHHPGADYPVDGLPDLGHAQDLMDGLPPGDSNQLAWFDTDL
# UniProt P30281: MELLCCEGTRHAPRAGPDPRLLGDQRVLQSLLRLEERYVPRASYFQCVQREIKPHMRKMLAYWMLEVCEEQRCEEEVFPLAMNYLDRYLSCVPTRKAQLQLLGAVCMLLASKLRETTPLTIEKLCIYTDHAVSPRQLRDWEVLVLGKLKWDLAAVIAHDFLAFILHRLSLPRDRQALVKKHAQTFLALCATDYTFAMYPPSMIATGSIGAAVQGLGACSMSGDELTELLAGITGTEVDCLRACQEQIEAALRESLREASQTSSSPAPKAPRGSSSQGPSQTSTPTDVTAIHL
# UniProt P41567, whole entry: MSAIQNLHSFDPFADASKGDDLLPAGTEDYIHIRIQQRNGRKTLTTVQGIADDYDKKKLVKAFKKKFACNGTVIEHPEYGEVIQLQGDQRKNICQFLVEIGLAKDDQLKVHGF
# UniProt P37108: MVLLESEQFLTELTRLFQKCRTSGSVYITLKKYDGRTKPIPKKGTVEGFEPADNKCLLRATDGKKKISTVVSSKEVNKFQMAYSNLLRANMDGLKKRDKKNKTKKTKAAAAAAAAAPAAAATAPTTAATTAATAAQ
# UniProt P42694: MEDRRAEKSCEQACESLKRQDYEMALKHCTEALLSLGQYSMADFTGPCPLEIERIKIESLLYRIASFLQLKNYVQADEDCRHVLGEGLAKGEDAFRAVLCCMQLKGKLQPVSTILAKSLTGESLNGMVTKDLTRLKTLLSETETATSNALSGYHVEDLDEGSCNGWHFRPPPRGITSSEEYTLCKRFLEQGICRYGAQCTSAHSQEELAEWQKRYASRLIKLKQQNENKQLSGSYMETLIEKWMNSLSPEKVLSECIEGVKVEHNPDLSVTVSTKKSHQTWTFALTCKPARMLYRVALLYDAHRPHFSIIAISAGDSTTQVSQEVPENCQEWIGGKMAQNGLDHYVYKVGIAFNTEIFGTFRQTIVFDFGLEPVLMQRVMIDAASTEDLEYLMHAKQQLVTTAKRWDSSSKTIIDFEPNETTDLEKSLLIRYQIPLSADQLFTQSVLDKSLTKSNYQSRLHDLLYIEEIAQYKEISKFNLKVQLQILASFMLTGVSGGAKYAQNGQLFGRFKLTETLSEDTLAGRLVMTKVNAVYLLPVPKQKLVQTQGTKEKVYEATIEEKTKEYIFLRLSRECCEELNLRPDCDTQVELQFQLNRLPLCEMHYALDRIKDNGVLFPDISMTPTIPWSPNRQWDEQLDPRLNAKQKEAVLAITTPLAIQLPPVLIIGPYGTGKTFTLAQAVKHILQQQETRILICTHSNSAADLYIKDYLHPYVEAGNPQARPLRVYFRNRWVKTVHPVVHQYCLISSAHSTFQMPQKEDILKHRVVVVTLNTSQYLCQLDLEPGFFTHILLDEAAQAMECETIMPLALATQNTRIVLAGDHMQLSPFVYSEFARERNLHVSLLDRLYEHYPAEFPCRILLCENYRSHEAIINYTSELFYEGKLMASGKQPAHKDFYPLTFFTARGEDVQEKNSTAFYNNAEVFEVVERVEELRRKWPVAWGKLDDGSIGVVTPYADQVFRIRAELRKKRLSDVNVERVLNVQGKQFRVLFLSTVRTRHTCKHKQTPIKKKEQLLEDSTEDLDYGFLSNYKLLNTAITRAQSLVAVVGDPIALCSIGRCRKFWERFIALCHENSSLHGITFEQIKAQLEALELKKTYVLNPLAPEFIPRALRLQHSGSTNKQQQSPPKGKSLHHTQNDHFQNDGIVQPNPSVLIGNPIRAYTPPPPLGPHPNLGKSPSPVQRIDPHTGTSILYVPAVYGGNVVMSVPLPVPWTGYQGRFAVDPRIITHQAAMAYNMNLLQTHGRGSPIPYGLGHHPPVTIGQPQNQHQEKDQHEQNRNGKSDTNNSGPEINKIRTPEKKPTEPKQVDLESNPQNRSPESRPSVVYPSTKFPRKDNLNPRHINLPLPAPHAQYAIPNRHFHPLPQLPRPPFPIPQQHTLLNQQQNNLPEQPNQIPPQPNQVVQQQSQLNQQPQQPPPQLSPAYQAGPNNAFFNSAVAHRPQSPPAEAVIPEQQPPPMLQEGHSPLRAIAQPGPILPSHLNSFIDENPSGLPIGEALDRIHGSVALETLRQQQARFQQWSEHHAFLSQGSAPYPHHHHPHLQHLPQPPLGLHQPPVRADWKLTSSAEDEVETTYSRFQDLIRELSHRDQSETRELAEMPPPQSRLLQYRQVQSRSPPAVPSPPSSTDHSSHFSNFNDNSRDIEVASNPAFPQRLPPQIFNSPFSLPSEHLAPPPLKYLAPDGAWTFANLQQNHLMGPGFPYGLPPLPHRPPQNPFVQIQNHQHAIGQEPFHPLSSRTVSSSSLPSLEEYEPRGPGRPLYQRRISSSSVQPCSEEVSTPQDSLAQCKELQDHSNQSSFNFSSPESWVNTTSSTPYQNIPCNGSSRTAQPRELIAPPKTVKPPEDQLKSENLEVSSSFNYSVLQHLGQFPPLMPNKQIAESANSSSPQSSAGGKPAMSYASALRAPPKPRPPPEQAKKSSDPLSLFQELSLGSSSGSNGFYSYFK
# UniProt P32119: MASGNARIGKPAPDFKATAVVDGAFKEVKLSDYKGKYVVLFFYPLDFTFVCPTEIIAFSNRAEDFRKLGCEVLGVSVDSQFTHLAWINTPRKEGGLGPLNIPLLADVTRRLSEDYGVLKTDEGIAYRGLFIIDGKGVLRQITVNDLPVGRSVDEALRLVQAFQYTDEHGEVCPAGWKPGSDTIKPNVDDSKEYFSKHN
# UniProt P36915, whole entry: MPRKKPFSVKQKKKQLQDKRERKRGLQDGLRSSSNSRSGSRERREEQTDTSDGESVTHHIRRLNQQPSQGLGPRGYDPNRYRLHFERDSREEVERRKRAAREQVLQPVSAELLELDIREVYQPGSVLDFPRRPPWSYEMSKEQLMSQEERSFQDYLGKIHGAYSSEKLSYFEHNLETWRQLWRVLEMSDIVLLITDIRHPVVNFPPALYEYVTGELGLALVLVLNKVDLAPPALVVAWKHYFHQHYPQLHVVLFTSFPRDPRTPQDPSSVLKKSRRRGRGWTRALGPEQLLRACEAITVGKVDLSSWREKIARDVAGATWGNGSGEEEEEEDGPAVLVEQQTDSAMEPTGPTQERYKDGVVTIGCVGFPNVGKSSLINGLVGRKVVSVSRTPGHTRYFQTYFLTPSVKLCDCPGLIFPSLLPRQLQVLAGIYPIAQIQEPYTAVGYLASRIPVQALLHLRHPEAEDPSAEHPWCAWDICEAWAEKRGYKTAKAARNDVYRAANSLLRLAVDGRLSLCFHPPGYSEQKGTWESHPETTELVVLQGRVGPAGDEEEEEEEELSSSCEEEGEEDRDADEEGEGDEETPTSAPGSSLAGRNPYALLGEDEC
# UniProt P42696: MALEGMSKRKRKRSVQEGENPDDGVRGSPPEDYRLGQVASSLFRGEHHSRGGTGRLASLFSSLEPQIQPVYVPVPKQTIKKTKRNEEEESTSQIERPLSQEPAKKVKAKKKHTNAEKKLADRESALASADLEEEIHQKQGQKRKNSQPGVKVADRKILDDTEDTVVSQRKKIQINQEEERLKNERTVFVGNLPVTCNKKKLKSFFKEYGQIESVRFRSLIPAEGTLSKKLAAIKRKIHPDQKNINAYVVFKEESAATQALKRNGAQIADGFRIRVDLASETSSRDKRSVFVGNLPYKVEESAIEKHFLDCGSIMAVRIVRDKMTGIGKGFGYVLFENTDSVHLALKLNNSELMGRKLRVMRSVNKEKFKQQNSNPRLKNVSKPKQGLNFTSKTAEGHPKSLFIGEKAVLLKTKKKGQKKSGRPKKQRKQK
# UniProt P30048: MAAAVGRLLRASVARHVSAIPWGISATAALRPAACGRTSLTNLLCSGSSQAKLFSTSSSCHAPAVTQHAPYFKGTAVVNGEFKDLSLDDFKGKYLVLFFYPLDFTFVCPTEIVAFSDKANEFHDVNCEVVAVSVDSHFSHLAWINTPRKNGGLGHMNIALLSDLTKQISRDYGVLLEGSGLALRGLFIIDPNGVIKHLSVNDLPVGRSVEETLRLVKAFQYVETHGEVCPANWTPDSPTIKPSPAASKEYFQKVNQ
# UniProt P41162: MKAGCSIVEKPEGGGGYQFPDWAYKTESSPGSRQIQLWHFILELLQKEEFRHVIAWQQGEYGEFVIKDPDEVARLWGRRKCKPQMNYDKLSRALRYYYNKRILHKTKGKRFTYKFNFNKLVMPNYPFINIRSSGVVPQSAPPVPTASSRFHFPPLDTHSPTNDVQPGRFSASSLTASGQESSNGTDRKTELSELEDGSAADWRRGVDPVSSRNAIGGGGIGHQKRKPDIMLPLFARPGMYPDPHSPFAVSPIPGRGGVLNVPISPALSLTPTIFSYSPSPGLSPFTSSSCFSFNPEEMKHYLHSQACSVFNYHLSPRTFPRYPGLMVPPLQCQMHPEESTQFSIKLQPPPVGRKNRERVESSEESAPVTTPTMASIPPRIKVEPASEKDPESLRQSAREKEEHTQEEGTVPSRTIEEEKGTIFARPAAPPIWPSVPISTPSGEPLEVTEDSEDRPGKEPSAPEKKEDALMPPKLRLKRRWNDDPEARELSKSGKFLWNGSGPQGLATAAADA
# UniProt P31153, whole entry, looked up: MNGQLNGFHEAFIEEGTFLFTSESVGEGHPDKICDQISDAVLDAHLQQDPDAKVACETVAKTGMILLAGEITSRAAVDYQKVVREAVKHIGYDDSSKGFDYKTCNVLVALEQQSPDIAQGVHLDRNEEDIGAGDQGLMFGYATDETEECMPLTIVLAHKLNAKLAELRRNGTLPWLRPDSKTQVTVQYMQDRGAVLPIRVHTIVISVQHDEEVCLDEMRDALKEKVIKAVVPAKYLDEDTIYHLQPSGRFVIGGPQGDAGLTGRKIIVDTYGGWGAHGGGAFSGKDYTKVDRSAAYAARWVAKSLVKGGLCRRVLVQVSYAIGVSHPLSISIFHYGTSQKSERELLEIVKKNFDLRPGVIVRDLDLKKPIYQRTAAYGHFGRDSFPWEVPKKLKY
# This is one part of the list. Most values lie at the level of the controls, where differences are scatter.
# Compound: Cc1nc(Nc2ncc(C(=O)Nc3c(C)cccc3Cl)s2)cc(N2CCN(CCO)CC2)n1 [dasatinib]
# Experiment: log2 fold change of tryptic peptide abundance, ligand vs vehicle (limited proteolysis) (log2 ratio); higher = more trypsin-susceptible (destabilized)
# Conditions: ligand concentration: 5 uM; sample: K562 cleared lysate
row,Target,log2 fold change
1,"STIP1 (peptide sequence: KFMNPFNMPNLYQK, peptide start residue: 123) (UniProt P31948)",0.0999
2,"STAT5A (peptide sequence: FKAEVQSNR, peptide start residue: 515) (UniProt P42229)",-0.192
3,"DUT (peptide sequence: AAQHGIPRPLSSAGR, peptide start residue: 48) (UniProt P33316)",-0.374
4,"CASP3 (peptide sequence: KITNFFR, peptide start residue: 138) (UniProt P42574)",0.356
5,"EPHX2 (peptide sequence: TEEALALPR, peptide start residue: 26) (UniProt P34913)",0.206
6,"CTNNB1 (peptide sequence: LAEPSQMLK, peptide start residue: 125) (UniProt P35222)",-0.15
7,"DLST (peptide sequence: AKPAEAPAAAAPK, peptide start residue: 153) (UniProt P36957)",0.0299
8,"CCND3 (peptide sequence: LCIYTDHAVSPR, peptide start residue: 124) (UniProt P30281)",-0.167
9,"EIF1 (peptide sequence: KNICQFLVEIGLAKDDQLK, peptide start residue: 91) (UniProt P41567)",0.141
10,"SRP14 (peptide sequence: ANMDGLKK, peptide start residue: 89) (UniProt P37108)",-0.288
11,"KDM5A (peptide sequence: QELQQAR, peptide start residue: 896) (UniProt P29375)",0.314
12,"UniProt P36542 (peptide sequence: HLLIGVSSDR, peptide start residue: 91)",-0.251
13,"TIA1 (peptide sequence: KDTSSSTVVSTQR, peptide start residue: 89) (UniProt P31483)",0.294
14,"ZNF76 (peptide sequence: VLHDSQIPR, peptide start residue: 145) (UniProt P36508)",-0.182
15,"CORO1A (peptide sequence: DGGLICTSCR, peptide start residue: 187) (UniProt P31146)",0.604
16,"RPL12 (peptide sequence: ALKEPPRDR, peptide start residue: 84) (UniProt P30050)",0.498
17,"UniProt P29536 (peptide sequence: MTVTNLLSR, peptide start residue: 461)",-0.0943
18,"RFC5 (peptide sequence: YRPQTLNDLISHQDILSTIQK, peptide start residue: 26) (UniProt P40937)",-0.206

# Nine consecutive records out of the list so far, for reference:
row,Target,log2 fold change
4,"CASP3 (peptide sequence: KITNFFR, peptide start residue: 138) (UniProt P42574)",0.356
5,"EPHX2 (peptide sequence: TEEALALPR, peptide start residue: 26) (UniProt P34913)",0.206
6,"CTNNB1 (peptide sequence: LAEPSQMLK, peptide start residue: 125) (UniProt P35222)",-0.15
7,"DLST (peptide sequence: AKPAEAPAAAAPK, peptide start residue: 153) (UniProt P36957)",0.0299
8,"CCND3 (peptide sequence: LCIYTDHAVSPR, peptide start residue: 124) (UniProt P30281)",-0.167
9,"EIF1 (peptide sequence: KNICQFLVEIGLAKDDQLK, peptide start residue: 91) (UniProt P41567)",0.141
10,"SRP14 (peptide sequence: ANMDGLKK, peptide start residue: 89) (UniProt P37108)",-0.288
11,"KDM5A (peptide sequence: QELQQAR, peptide start residue: 896) (UniProt P29375)",0.314
12,"UniProt P36542 (peptide sequence: HLLIGVSSDR, peptide start residue: 91)",-0.251

# (further entries)

row,Target,log2 fold change
1,"CAPG (peptide sequence: VSDATGQMNLTK, peptide start residue: 254) (UniProt P40121)",0.124
2,"HELZ (peptide sequence: FLEQGICR, peptide start residue: 187) (UniProt P42694)",-0.448
3,"MAGEA1 (peptide sequence: KLLTQDLVQEK, peptide start residue: 237) (UniProt P43355)",-0.163
4,"PRDX2 (peptide sequence: KEGGLGPLNIPLLADVTR, peptide start residue: 92) (UniProt P32119)",0.196
5,"HPCAL1 (peptide sequence: LSLEEFIR, peptide start residue: 164) (UniProt P37235)",0.0937
6,"GNL1 (peptide sequence: REEQTDTSDGESVTHHIRR, peptide start residue: 44) (UniProt P36915)",0.975
7,"SHC1 (peptide sequence: TRVEGGQLGGEEWTR, peptide start residue: 122) (UniProt P29353)",-0.0617
8,"CDC27 (peptide sequence: SALQELEELKQIVPK, peptide start residue: 721) (UniProt P30260)",-0.565
9,"RBM34 (peptide sequence: NGAQIADGFR, peptide start residue: 263) (UniProt P42696)",0.135
10,"GRN (peptide sequence: WDAPLRDPALR, peptide start residue: 580) (UniProt P28799)",-0.00543
11,"PRDX3 (peptide sequence: NGGLGHMNIALLSDLTK, peptide start residue: 150) (UniProt P30048)",0.213
12,"ETV3 (peptide sequence: IKVEPASEKDPESLR, peptide start residue: 380) (UniProt P41162)",-0.144
13,"ARL2 (peptide sequence: LAGATLLIFANK, peptide start residue: 115) (UniProt P36404)",-1.22
14,"MAT2A (peptide sequence: RNGTLPWLRPDSK, peptide start residue: 169) (UniProt P31153)",0.529
15,"UniProt P41229 (peptide sequence: VAGLQMTLTELR, peptide start residue: 843)",0.0925
16,"PCGF2 (peptide sequence: KGPLENGDGDKEK, peptide start residue: 148) (UniProt P35227)",0.212
17,"NMT1 (peptide sequence: GGLSPANDTGAK, peptide start residue: 44) (UniProt P30419)",-0.0308
18,"ACSL1 (peptide sequence: GPNVFQGYLKDPAK, peptide start residue: 512) (UniProt P33121)",-0.45
